Assay results reported in the supplement of paper PMC10849652.
The list shows a part of the results.

By UniProt entry, the sequences of proteins in these tests, tags left out. Where a name states a change or a piece, a line headed by the entry shows the natural chain unless it says otherwise.
UniProt Q8IY26: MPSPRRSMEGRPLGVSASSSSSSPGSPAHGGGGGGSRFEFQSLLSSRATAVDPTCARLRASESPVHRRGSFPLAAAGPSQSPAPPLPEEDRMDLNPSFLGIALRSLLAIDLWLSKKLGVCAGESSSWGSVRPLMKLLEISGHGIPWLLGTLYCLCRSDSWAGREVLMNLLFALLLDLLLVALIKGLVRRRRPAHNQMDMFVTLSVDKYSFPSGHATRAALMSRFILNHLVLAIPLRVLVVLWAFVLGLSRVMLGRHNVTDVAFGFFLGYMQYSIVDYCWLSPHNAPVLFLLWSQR
UniProt Q7Z3K3: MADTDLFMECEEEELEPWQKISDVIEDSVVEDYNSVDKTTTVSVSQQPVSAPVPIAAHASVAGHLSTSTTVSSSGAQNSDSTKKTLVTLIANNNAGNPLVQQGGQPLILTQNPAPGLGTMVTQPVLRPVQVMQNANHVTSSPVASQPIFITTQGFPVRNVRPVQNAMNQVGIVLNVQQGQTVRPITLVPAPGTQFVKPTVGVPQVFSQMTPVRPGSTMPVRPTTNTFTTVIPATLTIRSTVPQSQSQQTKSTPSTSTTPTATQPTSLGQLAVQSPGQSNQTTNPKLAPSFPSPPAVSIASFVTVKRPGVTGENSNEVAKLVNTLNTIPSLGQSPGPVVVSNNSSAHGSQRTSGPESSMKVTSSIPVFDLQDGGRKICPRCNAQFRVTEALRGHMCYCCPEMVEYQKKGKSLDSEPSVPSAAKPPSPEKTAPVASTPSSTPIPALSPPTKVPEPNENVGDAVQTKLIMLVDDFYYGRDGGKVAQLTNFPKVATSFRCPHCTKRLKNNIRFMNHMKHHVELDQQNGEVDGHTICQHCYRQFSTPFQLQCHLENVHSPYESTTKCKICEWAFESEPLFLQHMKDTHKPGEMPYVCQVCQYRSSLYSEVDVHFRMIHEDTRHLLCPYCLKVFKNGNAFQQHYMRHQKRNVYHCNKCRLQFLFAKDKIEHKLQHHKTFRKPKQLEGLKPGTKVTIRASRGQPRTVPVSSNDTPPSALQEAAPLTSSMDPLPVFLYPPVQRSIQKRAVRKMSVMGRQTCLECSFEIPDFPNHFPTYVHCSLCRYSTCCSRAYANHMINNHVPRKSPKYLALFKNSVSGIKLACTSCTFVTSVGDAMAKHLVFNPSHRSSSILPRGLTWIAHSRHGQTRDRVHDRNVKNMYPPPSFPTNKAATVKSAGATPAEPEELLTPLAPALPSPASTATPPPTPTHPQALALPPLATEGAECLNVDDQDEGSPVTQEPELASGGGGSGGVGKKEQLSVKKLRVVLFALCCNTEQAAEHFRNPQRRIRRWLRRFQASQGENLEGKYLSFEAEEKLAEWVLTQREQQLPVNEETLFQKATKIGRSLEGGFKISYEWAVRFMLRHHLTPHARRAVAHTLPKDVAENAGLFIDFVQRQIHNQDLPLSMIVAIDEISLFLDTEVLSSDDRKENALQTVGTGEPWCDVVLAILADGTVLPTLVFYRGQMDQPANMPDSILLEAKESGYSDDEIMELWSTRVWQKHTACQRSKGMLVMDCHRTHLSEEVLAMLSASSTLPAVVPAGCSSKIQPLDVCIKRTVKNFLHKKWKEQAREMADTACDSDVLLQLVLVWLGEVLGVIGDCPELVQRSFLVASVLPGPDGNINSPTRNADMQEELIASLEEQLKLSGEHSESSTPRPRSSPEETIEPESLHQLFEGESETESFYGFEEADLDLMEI
UniProt P62937, whole entry, looked up: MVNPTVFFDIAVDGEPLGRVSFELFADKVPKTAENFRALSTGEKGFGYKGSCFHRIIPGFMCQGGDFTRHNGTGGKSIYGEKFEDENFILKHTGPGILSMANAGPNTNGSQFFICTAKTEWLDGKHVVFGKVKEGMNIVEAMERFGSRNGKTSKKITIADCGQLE
UniProt Q8NBT0: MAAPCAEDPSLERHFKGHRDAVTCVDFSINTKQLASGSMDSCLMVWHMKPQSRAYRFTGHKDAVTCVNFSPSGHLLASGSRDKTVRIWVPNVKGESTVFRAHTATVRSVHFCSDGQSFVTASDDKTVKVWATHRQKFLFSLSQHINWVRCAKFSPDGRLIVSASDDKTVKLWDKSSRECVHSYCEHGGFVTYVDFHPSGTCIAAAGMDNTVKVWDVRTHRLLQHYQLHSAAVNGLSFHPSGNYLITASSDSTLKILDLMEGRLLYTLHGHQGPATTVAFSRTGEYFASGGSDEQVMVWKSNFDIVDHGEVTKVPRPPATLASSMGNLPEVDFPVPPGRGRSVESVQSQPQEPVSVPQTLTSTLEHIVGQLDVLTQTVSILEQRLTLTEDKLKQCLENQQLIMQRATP
UniProt Q8NEY8: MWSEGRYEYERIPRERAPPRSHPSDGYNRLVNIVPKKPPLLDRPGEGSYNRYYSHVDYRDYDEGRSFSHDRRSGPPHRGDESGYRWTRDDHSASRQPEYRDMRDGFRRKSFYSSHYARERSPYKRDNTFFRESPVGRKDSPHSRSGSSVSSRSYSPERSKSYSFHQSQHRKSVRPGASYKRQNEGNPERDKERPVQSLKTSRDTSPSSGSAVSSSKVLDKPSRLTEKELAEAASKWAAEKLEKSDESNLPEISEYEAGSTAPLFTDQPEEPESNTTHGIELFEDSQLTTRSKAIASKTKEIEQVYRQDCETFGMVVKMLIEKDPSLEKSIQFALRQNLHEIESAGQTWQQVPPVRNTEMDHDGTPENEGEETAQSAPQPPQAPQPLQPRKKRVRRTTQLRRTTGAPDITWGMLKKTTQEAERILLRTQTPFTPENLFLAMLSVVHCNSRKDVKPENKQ
UniProt Q04941: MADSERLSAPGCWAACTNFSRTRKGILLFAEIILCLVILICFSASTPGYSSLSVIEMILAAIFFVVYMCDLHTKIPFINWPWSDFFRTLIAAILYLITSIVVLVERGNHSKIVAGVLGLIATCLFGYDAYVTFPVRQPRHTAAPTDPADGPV
UniProt P55058, whole entry, looked up: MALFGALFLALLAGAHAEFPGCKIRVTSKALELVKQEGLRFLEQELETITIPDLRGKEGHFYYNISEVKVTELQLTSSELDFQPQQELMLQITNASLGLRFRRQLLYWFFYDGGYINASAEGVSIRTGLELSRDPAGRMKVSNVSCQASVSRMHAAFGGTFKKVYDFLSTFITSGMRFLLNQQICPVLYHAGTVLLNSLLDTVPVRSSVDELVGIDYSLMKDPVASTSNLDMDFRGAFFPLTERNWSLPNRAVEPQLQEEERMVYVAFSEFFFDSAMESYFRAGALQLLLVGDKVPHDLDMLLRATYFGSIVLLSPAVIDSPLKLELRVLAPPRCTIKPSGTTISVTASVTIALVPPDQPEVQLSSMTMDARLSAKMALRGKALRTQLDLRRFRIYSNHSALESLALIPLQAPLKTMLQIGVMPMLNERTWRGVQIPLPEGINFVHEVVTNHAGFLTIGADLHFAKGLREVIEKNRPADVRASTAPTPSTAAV
UniProt Q6T4P5: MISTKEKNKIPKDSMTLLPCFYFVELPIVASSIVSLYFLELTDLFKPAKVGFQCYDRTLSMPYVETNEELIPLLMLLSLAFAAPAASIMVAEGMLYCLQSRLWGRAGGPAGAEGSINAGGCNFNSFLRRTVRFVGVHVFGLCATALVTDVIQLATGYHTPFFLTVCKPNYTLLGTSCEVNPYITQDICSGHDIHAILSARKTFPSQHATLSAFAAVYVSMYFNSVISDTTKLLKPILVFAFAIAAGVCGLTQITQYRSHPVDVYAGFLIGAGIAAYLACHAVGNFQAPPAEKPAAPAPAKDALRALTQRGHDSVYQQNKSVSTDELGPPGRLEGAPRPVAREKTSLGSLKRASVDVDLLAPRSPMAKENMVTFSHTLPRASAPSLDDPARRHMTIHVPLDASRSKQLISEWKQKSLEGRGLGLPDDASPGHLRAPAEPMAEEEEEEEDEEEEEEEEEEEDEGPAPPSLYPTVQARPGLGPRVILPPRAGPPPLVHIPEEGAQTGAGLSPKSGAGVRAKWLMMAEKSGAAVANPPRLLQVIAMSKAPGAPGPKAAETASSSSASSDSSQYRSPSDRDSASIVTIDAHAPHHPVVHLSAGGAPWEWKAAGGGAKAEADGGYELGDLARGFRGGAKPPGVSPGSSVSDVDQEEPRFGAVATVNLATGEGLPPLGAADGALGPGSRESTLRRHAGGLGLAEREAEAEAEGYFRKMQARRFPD
UniProt Q86V59: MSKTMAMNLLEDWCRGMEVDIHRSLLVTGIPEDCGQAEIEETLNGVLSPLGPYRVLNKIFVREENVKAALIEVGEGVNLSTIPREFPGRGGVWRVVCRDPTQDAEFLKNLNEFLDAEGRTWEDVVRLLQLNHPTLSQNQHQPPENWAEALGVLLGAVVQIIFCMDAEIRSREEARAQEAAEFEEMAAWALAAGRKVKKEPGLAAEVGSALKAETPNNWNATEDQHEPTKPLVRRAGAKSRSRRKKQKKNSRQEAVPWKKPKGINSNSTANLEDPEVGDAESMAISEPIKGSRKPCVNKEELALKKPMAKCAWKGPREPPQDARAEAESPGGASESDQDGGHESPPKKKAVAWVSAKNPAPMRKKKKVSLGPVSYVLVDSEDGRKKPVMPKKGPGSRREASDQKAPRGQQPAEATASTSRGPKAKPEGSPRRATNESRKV
UniProt O00469: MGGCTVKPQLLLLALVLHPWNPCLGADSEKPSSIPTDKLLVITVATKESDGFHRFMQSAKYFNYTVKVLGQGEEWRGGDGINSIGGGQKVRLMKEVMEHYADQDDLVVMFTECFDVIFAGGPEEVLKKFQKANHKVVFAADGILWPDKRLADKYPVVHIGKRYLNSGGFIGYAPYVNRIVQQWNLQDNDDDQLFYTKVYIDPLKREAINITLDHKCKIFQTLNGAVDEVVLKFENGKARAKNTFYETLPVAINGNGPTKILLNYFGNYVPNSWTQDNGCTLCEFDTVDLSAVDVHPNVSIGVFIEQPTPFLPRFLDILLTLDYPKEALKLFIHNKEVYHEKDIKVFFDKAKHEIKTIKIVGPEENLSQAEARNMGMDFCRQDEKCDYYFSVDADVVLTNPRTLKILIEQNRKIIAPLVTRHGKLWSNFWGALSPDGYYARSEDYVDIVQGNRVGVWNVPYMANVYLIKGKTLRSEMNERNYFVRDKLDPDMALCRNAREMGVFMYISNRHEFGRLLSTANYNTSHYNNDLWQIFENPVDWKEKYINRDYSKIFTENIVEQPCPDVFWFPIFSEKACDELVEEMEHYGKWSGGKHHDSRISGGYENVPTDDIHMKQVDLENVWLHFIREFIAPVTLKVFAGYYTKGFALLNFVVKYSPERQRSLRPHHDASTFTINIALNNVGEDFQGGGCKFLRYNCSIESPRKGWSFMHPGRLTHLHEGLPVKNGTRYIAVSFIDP
UniProt Q9UBT6: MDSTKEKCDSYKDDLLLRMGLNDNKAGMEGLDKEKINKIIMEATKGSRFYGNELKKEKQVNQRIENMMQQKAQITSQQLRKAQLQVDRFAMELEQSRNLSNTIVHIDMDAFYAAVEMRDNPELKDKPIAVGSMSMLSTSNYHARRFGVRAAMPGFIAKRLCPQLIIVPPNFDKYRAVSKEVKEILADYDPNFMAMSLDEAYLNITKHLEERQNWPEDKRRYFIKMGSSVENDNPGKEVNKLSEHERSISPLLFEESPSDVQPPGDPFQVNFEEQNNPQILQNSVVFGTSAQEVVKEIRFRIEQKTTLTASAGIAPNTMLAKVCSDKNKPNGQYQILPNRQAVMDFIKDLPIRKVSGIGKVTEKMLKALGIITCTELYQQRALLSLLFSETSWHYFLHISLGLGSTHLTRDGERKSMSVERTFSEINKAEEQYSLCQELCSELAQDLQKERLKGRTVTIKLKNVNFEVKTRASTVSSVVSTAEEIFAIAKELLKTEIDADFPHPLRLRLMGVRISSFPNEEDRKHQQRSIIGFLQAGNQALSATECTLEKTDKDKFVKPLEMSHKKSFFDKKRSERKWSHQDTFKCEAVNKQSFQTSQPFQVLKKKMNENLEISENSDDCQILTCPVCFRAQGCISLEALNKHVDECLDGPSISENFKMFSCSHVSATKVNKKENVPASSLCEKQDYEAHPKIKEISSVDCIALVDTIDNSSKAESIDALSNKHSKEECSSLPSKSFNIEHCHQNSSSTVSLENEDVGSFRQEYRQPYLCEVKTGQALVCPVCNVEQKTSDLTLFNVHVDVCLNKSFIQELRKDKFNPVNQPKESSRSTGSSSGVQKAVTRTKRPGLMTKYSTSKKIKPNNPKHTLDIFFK
UniProt P41247: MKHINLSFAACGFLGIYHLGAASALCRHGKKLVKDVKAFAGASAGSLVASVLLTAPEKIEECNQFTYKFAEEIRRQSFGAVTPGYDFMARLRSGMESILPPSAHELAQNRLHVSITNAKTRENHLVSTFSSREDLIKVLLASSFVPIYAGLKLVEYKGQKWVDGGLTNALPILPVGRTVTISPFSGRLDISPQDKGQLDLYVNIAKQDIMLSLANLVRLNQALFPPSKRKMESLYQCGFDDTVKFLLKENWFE

How the values were obtained:
Assay in all cases: log2 fold change, soluble protein after heating vs DMSO (PISA); higher = thermal stabilisation; K562 lysate, 10 uM; active = over 0.2 and 3.5 SD of the protein, either way, in both replicates (recomputed)
erlotinib = compound: C#Cc1cccc(Nc2ncnc3cc(OCCOC)c(OCCOC)cc23)c1 [erlotinib]
Outline: (§1)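 Thermal stability, expressed as log-two fold change relative to solvent controls, is given from duplicates. Crude K562 extract in PBS pH 7.4 with 1 mM MgCl2, at 1 mg/mL protein, was treated with 10 μM compound for 30 min and heated in aliquots for 3 min across 48°C-58°C. After pooling, adjustment to 0.5% NP-40 at 4°C and centrifugation at 21,000xg for 90 min, supernatant protein was measured by TMTpro 16plex LC-MS/MS with channel sums equalised.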

[1] = compound: C/C(=N\NC(=O)C1=CC(=CC=C1)S(=O)(=O)N2CCOCC2)/C3=C(C=CC(=C3)Cl)O
Outline: as §1

[2] = compound: C1=CC(=CC=C1C2=NC3=C(N2)C=C(C=C3)C(=O)N)OC4=CC=C(C=C4)Cl
Outline: as §1

[3] = compound: C1=CC2=C(C=CC(=C2)/C=C\3/C(=O)NC(=NCC4=CC=CS4)S3)N=C1
Outline: as §1

[4] = compound: C1=CC=C(C=C1)C2=NC(=C(N2)C3=CC=NC=C3)C4=CC(=C(C=C4)Cl)O
Outline: as §1

[5] = compound: C1=CC=C2C(=C1)C3=NNC4=CC=CC(=C43)C2=O
Outline: as §1

[6] = compound: C1CCN(C1)C(=O)NC2=CC=CC(=C2)NC3=NC=C(C(=N3)NCCC4=CN=CN4)Br
Outline: as §1

[7] = compound: C1CN(CCC1(CC2=CC=C(C=C2)Cl)N)C3=NC=NC4=C3C=CN4
Outline: as §1

IRAK-1-4 Inhibitor I = compound: C1COCCN1CCN2C3=CC=CC=C3N=C2NC(=O)C4=CC(=CC=C4)[N+](=O)[O-] [IRAK-1-4 Inhibitor I]
Outline: as §1

[8] = compound: C1=CC2=NC=CN=C2C=C1/C=C/3\C(=O)NC(=O)S3
Outline: as §1

Measured: log2 fold change

PLEKHM1 (UniProt Q9Y4G2)
inactive: erlotinib 0.055 | [1] 0.01 | [2] 0.025 | [3] -0.089 | [4] -0.084 | [5] -0.107 | [6] -0.033 | [7] 0.04 | IRAK-1-4 Inhibitor I 0.033

POTEKP (UniProt Q9BYX7)
inactive: erlotinib 1.53 | [2] -0.508 | [8] 1.2 | [4] 1.96 | IRAK-1-4 Inhibitor I 1.22

PLPP6 (UniProt Q8IY26)
inactive: erlotinib 0.036 | [1] 0.204 | [2] -0.066 | [3] -0.017 | [4] -0.096 | [5] -0.082 | IRAK-1-4 Inhibitor I 0.044

POU6F1, A0A1C7CYV8
inactive: [4] 0.188 | IRAK-1-4 Inhibitor I -0.021

POGZ (UniProt Q7Z3K3)
inactive: [1] 0.016 | [3] 0.013 | [4] 0.043 | [5] -0.076 | [6] -0.015 | [7] 0.02 | IRAK-1-4 Inhibitor I 0.056

PPIA isoform 2 (UniProt P62937)
inactive: [8] -0.024

PLEKHH2 (UniProt E5RGK1)
inactive: [1] 0.091 | [3] 0.021 | [5] -0.072 | [6] 0.274 | [7] -0.083

POC1A (UniProt Q8NBT0)
inactive: [1] 0.022 | [3] 0.124 | [5] -0.038 | [6] 0.017 | [7] -0.059

PPHLN1 isoform 3 (UniProt Q8NEY8)
inactive: [1] -0.016 | [3] 0.146 | [4] 0.148 | [5] -0.195 | IRAK-1-4 Inhibitor I -0.003

PLP2 (UniProt Q04941)
inactive: erlotinib -0.038 | [1] -0.036 | [2] 0.016 | [3] -0.05 | [8] -0.083 | [5] -0.074 | [6] -0.023 | [7] -0.024

PLTP (UniProt P55058)
inactive: erlotinib 0.083 | [1] 0.004 | [2] -0.038 | [3] -0.101 | [4] 0.04 | [5] -0.069 | IRAK-1-4 Inhibitor I -0.018

POLR2K (UniProt P53803)
inactive: [1] -0.215 | [3] 0.025 | [8] -0.013 | [4] -0.058 | [5] 0.144 | [6] 0.094 | [7] -0.043 | IRAK-1-4 Inhibitor I 0.065

PLXND1 (UniProt Q9Y4D7)
inactive: erlotinib -0.067 | [2] 0.073 | [8] -0.048 | [4] -0.016 | IRAK-1-4 Inhibitor I -0.032

PLPPR3 isoform 3 (UniProt Q6T4P5)
inactive: [4] 0.235 | IRAK-1-4 Inhibitor I -0.016

POLR2J (UniProt P52435)
inactive: erlotinib 0.071 | [2] -0.018 | [8] 0.12 | [4] -0.023 | [6] -0.022 | [7] 0.003 | IRAK-1-4 Inhibitor I -0.003

PPARGC1B (UniProt Q86YN6)
inactive: erlotinib -0.032 | [2] 0.078 | [4] 0.01 | IRAK-1-4 Inhibitor I -0.013

POLR2F (UniProt U3KPV3)
inactive: [6] -0.055 | [7] 0.084

POMGNT2 (UniProt Q8NAT1)
inactive: erlotinib 0.007 | [1] -0.109 | [2] 0.013 | [3] -0.102 | [4] -0.023 | [5] -0.136 | [6] -0.098 | [7] 0.046 | IRAK-1-4 Inhibitor I -0.013

PNMA8A (UniProt Q86V59)
inactive: erlotinib -0.049 | [2] -0.102 | [8] -0.053 | [4] 0.015 | [6] 0.129 | [7] 0.005 | IRAK-1-4 Inhibitor I 0.08

PLOD2 isoform 2 (UniProt O00469)
inactive: [1] -0.254 | [3] 0.091 | [8] -0.188 | [5] 0.102 | [6] 0.268 | [7] -0.068

POLK (UniProt Q9UBT6)
inactive: [8] -0.068

POLG2 (UniProt J3KRM2)
inactive: erlotinib 0.083 | [2] 0.131 | [8] -0.174

PNPLA4 (UniProt P41247)
inactive: [1] 0.064 | [3] 0.1 | [4] 0.051 | [5] 0.1 | [6] 0.086 | [7] 0.09 | IRAK-1-4 Inhibitor I -0.001

Five consecutive records already listed:
PPARGC1B (UniProt Q86YN6)
inactive: erlotinib -0.032 | [2] 0.078 | [4] 0.01 | IRAK-1-4 Inhibitor I -0.013

POLR2F (UniProt U3KPV3)
inactive: [6] -0.055 | [7] 0.084

POMGNT2 (UniProt Q8NAT1)
inactive: erlotinib 0.007 | [1] -0.109 | [2] 0.013 | [3] -0.102 | [4] -0.023 | [5] -0.136 | [6] -0.098 | [7] 0.046 | IRAK-1-4 Inhibitor I -0.013

PNMA8A (UniProt Q86V59)
inactive: erlotinib -0.049 | [2] -0.102 | [8] -0.053 | [4] 0.015 | [6] 0.129 | [7] 0.005 | IRAK-1-4 Inhibitor I 0.08

PLOD2 isoform 2 (UniProt O00469)
inactive: [1] -0.254 | [3] 0.091 | [8] -0.188 | [5] 0.102 | [6] 0.268 | [7] -0.068
